The chains behind the UniProt entries cited, without tags or fusion partners. Where a name states a change or a piece, a line headed by the entry shows the natural chain unless it says otherwise.
UniProt Q7Z434: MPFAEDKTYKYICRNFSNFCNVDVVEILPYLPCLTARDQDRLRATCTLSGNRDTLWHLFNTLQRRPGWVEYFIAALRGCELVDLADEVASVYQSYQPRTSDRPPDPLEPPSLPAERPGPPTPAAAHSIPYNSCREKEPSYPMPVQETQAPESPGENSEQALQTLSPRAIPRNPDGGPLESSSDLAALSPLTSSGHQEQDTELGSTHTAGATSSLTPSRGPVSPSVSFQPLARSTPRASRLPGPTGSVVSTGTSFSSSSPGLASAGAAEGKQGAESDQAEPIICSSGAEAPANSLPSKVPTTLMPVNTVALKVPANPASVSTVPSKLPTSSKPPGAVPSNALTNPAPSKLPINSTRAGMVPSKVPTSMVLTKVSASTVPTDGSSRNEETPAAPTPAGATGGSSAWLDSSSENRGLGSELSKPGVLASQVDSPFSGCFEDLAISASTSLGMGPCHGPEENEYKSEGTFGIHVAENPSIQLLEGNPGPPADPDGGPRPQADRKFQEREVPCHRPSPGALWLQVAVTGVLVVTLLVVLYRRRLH
UniProt Q13114: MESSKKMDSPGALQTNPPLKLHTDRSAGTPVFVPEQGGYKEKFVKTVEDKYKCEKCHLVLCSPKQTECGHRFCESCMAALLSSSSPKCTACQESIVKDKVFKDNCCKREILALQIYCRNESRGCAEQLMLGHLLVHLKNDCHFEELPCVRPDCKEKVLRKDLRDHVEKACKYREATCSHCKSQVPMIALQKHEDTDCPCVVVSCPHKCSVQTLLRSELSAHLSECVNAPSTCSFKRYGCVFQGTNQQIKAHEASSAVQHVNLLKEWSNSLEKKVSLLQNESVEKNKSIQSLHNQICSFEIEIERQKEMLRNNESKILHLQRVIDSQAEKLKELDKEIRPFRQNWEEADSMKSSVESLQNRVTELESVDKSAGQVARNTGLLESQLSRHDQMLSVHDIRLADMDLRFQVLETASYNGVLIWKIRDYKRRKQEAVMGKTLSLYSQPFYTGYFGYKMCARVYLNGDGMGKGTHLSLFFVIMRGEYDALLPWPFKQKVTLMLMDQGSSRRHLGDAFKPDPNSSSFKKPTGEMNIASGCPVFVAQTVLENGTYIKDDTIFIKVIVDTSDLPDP
UniProt Q14653: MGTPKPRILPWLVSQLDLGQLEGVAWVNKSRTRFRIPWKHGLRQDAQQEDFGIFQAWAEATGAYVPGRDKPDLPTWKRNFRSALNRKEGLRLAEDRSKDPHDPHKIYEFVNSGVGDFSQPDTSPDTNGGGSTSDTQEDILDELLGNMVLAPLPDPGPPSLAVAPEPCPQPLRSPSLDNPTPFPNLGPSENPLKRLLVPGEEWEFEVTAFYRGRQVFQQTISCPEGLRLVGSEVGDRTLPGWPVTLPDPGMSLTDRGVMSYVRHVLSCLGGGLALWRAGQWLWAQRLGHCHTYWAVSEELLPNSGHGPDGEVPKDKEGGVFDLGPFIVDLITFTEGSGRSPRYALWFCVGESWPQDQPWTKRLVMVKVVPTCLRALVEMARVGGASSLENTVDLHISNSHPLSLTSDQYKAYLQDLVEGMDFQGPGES
UniProt Q9UHD2: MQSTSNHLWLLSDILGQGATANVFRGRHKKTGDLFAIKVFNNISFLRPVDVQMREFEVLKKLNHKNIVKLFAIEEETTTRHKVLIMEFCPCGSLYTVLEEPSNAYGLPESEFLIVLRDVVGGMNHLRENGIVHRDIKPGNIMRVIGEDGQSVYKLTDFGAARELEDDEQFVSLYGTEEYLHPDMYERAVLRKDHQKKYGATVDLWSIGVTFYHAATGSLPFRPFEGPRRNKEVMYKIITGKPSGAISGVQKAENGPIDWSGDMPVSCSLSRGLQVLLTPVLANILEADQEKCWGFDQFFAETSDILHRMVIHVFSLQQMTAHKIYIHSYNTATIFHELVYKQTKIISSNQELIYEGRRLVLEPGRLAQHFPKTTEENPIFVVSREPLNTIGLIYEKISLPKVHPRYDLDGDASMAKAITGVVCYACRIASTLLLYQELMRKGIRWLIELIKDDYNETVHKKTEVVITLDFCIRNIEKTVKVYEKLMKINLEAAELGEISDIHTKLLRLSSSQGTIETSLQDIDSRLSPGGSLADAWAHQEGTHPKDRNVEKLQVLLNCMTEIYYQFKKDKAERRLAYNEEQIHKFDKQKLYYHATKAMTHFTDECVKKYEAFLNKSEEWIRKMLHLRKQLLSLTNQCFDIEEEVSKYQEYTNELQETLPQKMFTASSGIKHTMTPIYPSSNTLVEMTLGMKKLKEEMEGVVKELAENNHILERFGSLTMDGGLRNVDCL

According to paper PMC7588591:

Each substance was assayed against GST-MAVS (UniProt Q7Z434) (assay: pull-down; purified recombinant GST-MAVS on glutathione agarose beads, incubated with lysate of cells transfected with Flag-TRAF3, Flag-TBK1, Flag-IRF3 and/or M-HA; immunoblot; only the target purified).
Flag-TRAF3 (from UniProt Q13114 1-568) was tested, and the binding was “binds”.
For Flag-IRF3 (from UniProt Q14653 1-427), the binding was “binds”.
Flag-TBK1 (from UniProt Q9UHD2 1-729) was tested, and the binding was “binds”.

These are yes or no findings as the source states them, for the method shown. In cells and extracts the contact can be indirect. Binding can be weak; no strength is given.
